Source: publication PMC6599020

Amino acid sequences for entries named in this document (tags omitted).
UniProt P11142: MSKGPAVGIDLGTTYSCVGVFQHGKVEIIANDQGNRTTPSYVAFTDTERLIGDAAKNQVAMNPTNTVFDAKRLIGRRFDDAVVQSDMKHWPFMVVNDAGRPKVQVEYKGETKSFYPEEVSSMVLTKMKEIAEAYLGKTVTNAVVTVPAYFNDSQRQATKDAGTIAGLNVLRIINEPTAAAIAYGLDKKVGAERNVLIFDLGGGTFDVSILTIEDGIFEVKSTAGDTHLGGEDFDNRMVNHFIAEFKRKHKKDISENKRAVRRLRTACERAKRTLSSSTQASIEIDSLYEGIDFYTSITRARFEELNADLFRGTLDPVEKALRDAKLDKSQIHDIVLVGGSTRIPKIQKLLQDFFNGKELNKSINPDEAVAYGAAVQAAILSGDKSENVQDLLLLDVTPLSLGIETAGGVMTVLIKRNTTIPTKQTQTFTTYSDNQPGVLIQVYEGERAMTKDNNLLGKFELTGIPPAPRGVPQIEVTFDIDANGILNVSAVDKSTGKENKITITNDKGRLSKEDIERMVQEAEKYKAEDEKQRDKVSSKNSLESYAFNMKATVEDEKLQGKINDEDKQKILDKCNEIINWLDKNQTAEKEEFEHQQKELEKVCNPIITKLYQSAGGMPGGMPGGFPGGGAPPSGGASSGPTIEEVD

Target: 3×-FLAG-ΔNLS-DEDD (cytosolic Death Effector Domain-containing DNA-binding protein with substitution mutations in all three nuclear localization sequences) (human) (UniProt O75618)
Assay: affinity purification with mass spectrometry; anti-FLAG (F1804)-coupled Dynabeads immunoprecipitation of 3×-FLAG-ΔNLS-DEDD from lysate of lentivirally infected cells (Dynabeads Co-IP kit extraction buffer, 4 °C, 1 h); anti-mouse IgG1 beads as control; co-precipitated proteins analysed by mass spectrometry

heat-shock cognate 71 kDa protein (HSC70) (from UniProt P11142 1-646)
binding: binds

Results are given in words; binding and its absence hold for the method and conditions named. Binding seen in cells or lysates may run through a third protein. These calls come from enrichment with a bait or labelling near it, and not all partners need be listed.
